In the M2OR odorant receptor database:
The entries are a selection whose mix differs from that of the whole data set. The calls were merged from several studies; some rest on single wells. The list shows a part of the results.

Chains of the proteins cited; added tags and fusions are not shown. Chains listed by the source or under a name are the forms on record and can include a tag or linker.
OR6F1, as listed by the source: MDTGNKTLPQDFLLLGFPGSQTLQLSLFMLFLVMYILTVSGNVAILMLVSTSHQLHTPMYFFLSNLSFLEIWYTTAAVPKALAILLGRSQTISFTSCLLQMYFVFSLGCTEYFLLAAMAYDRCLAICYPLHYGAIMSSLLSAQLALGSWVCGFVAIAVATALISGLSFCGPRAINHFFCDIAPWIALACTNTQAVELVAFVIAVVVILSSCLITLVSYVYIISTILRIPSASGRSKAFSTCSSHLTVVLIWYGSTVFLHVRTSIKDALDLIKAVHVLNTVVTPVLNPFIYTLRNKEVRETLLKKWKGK

Experiments:
Settings in all cases: stereoisomer not certain
[1] = system: T1, OR6J1
T1 sequence (whole entry): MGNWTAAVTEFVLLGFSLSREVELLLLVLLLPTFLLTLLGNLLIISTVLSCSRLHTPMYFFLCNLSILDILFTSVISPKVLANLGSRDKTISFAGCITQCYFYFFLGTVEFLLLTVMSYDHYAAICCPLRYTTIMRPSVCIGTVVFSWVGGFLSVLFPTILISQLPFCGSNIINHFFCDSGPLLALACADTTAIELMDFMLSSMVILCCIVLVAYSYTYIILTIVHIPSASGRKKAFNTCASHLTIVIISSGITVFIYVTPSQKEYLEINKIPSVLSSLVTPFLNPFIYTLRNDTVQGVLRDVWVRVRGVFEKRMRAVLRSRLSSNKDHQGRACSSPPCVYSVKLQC
In short: (§1)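 Assay methods differ from source to source, frequently being transient luciferase assays in mammalian cell lines. For each receptor–molecule pair, the label responsive (active) applies when the original authors judged the measured signal statistically different from baseline, and non-responsive (inactive) applies otherwise.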

[2] = molecular target: T2, OR6K2 (Homo sapiens) (UniProt Q8NGY2)
T2 sequence (whole entry): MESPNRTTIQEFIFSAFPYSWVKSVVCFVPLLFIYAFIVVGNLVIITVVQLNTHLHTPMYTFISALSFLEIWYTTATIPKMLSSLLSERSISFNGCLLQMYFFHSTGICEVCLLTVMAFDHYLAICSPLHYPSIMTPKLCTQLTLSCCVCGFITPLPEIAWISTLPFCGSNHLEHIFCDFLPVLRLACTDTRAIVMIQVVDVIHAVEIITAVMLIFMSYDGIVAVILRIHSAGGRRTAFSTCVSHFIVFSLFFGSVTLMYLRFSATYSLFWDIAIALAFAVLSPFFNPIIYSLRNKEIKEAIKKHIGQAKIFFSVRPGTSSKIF
In short: as §1

[3] = system: T3, OR6K3
T3 sequence (whole entry): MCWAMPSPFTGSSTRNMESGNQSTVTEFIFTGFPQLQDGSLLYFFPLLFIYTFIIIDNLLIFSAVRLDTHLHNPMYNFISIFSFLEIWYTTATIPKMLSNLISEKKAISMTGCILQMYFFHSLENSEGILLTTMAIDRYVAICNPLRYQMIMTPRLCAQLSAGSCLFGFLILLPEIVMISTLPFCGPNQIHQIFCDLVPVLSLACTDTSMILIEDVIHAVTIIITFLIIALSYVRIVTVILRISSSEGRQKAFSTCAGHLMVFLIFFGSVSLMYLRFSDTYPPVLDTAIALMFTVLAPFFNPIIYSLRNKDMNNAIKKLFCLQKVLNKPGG
In short: as §1

[4] = system: T4, OR6K3; remark: listed apart in the source
T4 sequence (whole entry): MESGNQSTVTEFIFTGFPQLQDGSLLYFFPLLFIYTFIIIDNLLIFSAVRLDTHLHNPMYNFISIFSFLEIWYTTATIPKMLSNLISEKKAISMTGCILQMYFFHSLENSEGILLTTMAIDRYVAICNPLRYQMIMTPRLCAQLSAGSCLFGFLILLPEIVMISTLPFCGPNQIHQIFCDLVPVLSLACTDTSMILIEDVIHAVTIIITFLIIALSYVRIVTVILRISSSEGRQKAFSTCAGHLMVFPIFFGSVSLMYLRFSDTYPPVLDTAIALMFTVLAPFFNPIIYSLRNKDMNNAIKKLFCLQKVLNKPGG
In short: as §1

[5] = system: T5, OR6K6
T5 sequence (whole entry): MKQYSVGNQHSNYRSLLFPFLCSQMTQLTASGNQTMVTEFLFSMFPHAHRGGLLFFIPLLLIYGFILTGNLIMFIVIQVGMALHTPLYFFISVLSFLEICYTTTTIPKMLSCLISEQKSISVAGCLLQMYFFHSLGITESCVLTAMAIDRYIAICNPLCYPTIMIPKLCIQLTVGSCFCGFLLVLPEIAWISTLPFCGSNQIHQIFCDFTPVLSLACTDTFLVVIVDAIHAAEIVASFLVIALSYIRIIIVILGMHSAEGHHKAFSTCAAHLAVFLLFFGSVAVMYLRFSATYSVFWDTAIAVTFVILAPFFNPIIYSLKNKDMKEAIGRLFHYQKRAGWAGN
In short: as §1

[6] = system: T6, OR6K6; remark: listed apart in the source
T6 sequence (whole entry): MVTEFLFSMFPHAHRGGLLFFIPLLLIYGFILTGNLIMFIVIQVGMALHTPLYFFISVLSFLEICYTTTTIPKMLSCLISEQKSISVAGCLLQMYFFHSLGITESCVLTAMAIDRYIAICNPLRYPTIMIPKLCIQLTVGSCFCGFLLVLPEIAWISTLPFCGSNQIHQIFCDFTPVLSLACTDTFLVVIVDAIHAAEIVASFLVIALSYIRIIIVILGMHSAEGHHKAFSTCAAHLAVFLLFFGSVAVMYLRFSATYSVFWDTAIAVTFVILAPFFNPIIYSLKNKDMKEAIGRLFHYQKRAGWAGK
In short: as §1

[7] = molecular target: OR6K3 (Homo sapiens) (UniProt Q8NGY3)
In short: as §1

[8] = molecular target: OR6K6 (Homo sapiens) (UniProt Q8NGW6)
In short: as §1

[9] = system: OR6F1
In short: as §1

[10] = system: OR6F1; remark: listed apart in the source
In short: as §1

Structure (SMILES)	odorant receptor agonist call [1]	odorant receptor agonist call [2]	odorant receptor agonist call [3]	odorant receptor agonist call [4]	odorant receptor agonist call [5]	odorant receptor agonist call [6]	odorant receptor agonist call [7]	odorant receptor agonist call [8]	odorant receptor agonist call [9]	odorant receptor agonist call [10]
CC(C)=CCCC(C)=CC=O	inactive	inactive	inactive	inactive	inactive	inactive				
CCCC(=O)O	inactive	inactive	inactive	inactive	inactive	inactive				
COc1ccccc1O	inactive	active	inactive	inactive	inactive	inactive				
CC1CCC(C(C)C)C(O)C1 (stereo not given)	inactive	inactive	inactive	active	inactive	inactive				
CCC=CCCO	inactive	inactive	inactive	inactive	inactive	inactive				
CC12C=CCC1C1CCC3=CC(=O)CCC3(C)C1CC2 (stereo not given)	inactive	inactive	inactive	inactive	inactive	inactive				
CC(C)C(=O)O	inactive	inactive	inactive	inactive	inactive	inactive				
CC(C)CC(=O)O	inactive	inactive	inactive	inactive	inactive	inactive				
C=CC(C)(O)CCC=C(C)C (stereo not given)	inactive	inactive	inactive	inactive	inactive	inactive				
CCCCCOC(C)=O	inactive	inactive	inactive	inactive	inactive	inactive				
C=C(C)C1CCC2=CC(=O)CC(C)C2(C)C1 (stereo not given)	active									
CCCCCCCCOC(C)=O	inactive	inactive	inactive	inactive	inactive	inactive				
CC12CCC(C1)C(C)(C)C2=O (stereo not given)	inactive	inactive	inactive	inactive	inactive	inactive				
COc1cc(C)ccc1O	inactive	inactive	inactive	inactive	inactive	inactive				
CC1COCc2cc3c(cc21)C(C)(C)C(C)C3(C)C (stereo not given)	active	active	active	active	active	active				
CCCCCCCC=CC=O	active	inactive	inactive	inactive	inactive	inactive				
CC(C)C=O	inactive	inactive	inactive	inactive	inactive	inactive				
CC(=O)OCC=C(C)CCC=C(C)C	active	inactive	inactive	active	inactive	inactive				
C=CCSCC=C	inactive	inactive	inactive	inactive	inactive	inactive				
CC(C)(O)CCCC1=CCC(C=O)CC1 (stereo not given)	inactive									
C=CCc1ccc(OC(C)=O)c(OC)c1	active	inactive	inactive	inactive	inactive	inactive				
CC12C=CCC1C1CCC3CC(=O)CCC3(C)C1CC2 (stereo not given)	inactive	inactive	inactive	inactive	inactive	inactive	inactive	inactive		
CC(C)(C)c1ccc(CCC=O)cc1	inactive	inactive	inactive	inactive	inactive	inactive				
CC1=CCC(C(C)(C)O)CC1 (stereo not given)	inactive	inactive	inactive	inactive	inactive	inactive				
C=CCc1ccc(OC)c(OC)c1	inactive	inactive	inactive	inactive	inactive	inactive			inactive	active
c1cnccn1	inactive	inactive	inactive	inactive	inactive	inactive				

Two neighbouring records out of the list so far, quoted:
Structure (SMILES)	odorant receptor agonist call [1]	odorant receptor agonist call [2]	odorant receptor agonist call [3]	odorant receptor agonist call [4]	odorant receptor agonist call [5]	odorant receptor agonist call [6]	odorant receptor agonist call [7]	odorant receptor agonist call [8]	odorant receptor agonist call [9]	odorant receptor agonist call [10]
CC(C)(C)c1ccc(CCC=O)cc1	inactive	inactive	inactive	inactive	inactive	inactive				
CC1=CCC(C(C)(C)O)CC1 (stereo not given)	inactive	inactive	inactive	inactive	inactive	inactive				
